Holding throughout (experiment): log2 fold change, soluble protein after heating vs DMSO (PISA); higher = thermal stabilisation; K562 lysate, 10 uM; active = over 0.2 and 3.5 SD of the protein, either way, in both replicates (recomputed)
Compound in test [1]: NCC(=O)Nc1ccc(-n2nc(C(F)(F)F)cc2-c2ccc3c(ccc4ccccc43)c2)cc1
A digest of the protocol: (§1)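 Quantification was by TMTpro 16plex LC-MS/MS with equalised channel sums, applied to the supernatant after 21,000xg for 90 min. Samples were crude K562 extract at 1 mg/mL protein in PBS pH 7.4 with 1 mM MgCl2, treated with 10 μM compound for 30 min, heated for 3 min across 48°C-58°C, pooled and brought to 0.5% NP-40 at 4°C. Values are log-two fold changes in thermal stability relative to solvent controls, from duplicates.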

Sequences of proteins named here, by UniProt entry; tags and fusion partners are left off. A change or cut given only in a name is not applied to a line headed by its entry.
UniProt Q96GU1: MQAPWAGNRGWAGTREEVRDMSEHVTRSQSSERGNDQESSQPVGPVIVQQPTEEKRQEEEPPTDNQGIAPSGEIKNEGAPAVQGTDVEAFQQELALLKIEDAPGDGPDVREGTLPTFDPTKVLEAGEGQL
UniProt Q96E22: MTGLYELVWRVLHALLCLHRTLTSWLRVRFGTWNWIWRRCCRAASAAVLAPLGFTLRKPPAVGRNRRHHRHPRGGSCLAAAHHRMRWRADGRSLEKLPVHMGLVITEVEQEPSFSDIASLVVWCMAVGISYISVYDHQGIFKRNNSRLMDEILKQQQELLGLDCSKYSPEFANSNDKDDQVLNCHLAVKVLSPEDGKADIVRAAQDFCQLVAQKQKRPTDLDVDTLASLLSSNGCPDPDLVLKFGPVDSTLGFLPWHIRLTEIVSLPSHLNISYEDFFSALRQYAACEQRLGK
UniProt O43482, whole entry, looked up: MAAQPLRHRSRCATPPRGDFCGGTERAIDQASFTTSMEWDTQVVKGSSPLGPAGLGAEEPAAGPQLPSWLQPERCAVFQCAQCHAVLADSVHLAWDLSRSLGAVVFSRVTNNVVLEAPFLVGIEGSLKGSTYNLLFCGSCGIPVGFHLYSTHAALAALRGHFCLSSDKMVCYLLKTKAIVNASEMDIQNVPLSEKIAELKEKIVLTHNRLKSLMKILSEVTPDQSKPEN
UniProt Q9BZ23: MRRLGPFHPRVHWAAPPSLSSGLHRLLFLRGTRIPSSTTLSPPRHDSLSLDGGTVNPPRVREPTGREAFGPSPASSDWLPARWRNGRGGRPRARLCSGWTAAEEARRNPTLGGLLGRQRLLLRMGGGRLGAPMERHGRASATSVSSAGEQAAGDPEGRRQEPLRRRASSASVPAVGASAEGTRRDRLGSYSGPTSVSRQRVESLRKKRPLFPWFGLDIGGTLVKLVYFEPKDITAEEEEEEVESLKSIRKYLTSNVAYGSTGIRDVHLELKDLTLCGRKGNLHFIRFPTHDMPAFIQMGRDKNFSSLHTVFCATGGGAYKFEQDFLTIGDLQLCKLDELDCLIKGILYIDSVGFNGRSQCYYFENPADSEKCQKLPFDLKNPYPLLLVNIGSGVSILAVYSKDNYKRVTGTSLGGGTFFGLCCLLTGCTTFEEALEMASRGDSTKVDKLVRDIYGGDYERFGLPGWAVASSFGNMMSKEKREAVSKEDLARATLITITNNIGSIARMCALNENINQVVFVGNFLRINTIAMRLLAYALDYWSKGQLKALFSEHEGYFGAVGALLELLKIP
UniProt Q9BWT3: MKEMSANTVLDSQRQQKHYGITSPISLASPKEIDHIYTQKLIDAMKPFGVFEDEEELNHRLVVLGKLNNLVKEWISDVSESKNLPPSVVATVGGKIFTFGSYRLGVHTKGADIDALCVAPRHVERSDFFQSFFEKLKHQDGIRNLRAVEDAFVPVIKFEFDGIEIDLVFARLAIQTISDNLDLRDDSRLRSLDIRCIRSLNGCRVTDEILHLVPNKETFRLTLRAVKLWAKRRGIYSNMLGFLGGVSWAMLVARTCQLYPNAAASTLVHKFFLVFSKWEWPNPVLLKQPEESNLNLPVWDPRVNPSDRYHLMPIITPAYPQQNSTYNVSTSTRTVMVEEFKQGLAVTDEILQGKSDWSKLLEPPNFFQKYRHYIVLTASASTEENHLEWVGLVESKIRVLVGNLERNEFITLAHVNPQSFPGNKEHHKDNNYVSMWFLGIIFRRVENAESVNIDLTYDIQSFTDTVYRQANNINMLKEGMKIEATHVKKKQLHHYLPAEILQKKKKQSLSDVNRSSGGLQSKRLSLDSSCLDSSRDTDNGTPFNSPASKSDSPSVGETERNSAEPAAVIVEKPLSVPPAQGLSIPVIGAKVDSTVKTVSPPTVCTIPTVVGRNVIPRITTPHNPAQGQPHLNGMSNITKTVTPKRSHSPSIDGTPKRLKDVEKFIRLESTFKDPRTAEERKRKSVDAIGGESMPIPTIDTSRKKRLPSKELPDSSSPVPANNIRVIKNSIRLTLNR
UniProt Q9H999: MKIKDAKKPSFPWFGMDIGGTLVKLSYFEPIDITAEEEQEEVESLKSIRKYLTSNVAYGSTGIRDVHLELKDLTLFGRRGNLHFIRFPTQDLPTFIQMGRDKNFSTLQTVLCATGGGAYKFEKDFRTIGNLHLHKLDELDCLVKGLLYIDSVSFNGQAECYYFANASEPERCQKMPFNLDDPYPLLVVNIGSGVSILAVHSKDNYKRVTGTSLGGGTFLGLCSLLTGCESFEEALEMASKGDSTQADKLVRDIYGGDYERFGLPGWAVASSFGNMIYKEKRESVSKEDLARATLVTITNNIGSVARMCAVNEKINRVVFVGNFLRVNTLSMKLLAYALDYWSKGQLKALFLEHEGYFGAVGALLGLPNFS
UniProt Q6N063: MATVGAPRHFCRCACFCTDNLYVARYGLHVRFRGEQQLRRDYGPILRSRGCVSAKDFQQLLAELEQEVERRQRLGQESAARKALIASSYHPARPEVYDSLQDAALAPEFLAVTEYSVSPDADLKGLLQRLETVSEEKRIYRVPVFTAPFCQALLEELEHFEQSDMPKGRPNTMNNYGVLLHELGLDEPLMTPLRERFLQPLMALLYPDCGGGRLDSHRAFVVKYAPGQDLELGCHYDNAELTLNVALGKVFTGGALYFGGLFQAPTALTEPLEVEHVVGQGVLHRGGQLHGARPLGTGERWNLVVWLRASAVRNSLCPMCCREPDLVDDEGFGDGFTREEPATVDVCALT
UniProt Q8TEM1: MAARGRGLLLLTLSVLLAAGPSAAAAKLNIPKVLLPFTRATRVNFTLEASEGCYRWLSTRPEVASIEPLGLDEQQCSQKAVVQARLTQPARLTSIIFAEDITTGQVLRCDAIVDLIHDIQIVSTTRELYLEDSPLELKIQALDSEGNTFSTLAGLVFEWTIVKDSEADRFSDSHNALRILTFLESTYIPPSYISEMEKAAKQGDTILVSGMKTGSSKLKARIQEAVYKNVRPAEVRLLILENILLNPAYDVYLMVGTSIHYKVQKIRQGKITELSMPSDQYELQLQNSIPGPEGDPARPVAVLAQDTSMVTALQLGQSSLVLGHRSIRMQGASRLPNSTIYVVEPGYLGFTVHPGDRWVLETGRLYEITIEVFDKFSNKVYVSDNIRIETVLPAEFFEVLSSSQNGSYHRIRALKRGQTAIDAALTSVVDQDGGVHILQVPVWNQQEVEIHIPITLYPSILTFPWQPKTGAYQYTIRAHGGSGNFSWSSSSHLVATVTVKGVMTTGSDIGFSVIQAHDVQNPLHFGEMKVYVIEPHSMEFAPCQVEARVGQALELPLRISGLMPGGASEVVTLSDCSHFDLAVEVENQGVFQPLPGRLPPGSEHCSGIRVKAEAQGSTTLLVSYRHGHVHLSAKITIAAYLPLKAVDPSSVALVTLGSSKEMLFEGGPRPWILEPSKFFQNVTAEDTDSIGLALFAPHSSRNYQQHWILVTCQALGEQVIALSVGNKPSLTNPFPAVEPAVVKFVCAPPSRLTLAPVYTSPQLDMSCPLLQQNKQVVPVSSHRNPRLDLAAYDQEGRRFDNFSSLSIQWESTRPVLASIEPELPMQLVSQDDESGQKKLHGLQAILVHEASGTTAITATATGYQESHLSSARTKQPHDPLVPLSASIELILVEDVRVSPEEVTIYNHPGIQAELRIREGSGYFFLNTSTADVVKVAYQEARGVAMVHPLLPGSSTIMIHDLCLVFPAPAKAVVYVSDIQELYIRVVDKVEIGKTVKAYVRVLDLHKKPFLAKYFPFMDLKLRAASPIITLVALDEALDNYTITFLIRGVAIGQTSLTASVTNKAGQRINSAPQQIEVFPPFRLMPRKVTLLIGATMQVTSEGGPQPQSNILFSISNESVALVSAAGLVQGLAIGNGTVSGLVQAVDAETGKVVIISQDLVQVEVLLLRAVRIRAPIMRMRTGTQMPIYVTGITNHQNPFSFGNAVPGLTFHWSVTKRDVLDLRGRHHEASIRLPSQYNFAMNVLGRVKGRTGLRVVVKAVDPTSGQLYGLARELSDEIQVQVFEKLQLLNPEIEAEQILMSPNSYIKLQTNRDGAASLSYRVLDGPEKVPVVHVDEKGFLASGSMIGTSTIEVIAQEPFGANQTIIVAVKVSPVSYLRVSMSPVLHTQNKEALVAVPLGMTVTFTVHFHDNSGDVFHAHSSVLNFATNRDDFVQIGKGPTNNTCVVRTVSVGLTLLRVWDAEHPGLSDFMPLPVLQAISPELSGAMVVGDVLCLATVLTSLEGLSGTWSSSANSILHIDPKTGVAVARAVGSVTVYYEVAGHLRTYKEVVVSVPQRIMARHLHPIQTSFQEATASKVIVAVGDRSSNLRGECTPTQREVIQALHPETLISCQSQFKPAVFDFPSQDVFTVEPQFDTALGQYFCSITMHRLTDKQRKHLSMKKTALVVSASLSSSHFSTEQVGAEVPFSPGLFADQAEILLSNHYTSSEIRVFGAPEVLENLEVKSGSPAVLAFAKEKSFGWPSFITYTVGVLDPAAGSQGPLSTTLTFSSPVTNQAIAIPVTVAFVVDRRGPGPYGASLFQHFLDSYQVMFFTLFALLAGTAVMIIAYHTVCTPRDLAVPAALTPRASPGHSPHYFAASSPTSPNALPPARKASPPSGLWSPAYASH
UniProt Q9UQ80: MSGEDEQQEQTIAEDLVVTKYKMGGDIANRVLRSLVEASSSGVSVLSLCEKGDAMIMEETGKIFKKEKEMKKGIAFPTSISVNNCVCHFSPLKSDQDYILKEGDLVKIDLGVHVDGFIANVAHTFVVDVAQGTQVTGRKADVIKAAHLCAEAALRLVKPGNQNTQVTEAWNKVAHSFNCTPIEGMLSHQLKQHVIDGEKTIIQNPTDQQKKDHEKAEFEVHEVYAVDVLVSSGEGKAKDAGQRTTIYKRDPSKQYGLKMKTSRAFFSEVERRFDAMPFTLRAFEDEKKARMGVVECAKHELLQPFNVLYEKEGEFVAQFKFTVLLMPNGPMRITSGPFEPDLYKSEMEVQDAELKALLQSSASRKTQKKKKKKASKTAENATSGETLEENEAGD

Compound in a further test: O=C(CCCCCCC(=O)Nc1ccccc1)NO [vorinostat]
A digest of the protocol: as §1

Compound in a further test: O=C(O)c1ccc2c(c1)nc(Nc1cccc(Cl)c1)c1ccncc12 [silmitasertib]
Summed up:
as §1

Compound in test [2]: O=C1NC(=O)C(c2cnc3ccccn23)=C1c1cn2c3c(cc(F)cc13)CN(C(=O)N1CCCCC1)CC2
Summed up:
as §1

Compound in the next test: c1cn2cc(-c3ccc4cn[nH]c4c3)nc(Nc3ccc(N4CCOCC4)cc3)c2n1 [entospletinib]
Summed up:
as §1

This is an account of results in the supplement of paper PMC10849652.

The list shows a part of the results.

As for PAGE5 (UniProt Q96GU1), the log2 fold change in test [1] was inactive: -0.076; in the test with vorinostat, inactive: 0.239; with silmitasertib it was inactive: -0.029; in test [2] it was inactive: 0.056; in the test with entospletinib, inactive: 0.061.

Consider NUS1 (UniProt Q96E22), for which the log2 fold change is inactive: 0.077 in test [1]; inactive: -0.118 with vorinostat; inactive: -0.031 with silmitasertib; inactive: -0.048 in test [2]; inactive: 0.05 with entospletinib.

Take OIP5 (UniProt O43482): the log2 fold change is inactive: -0.003 in test [1]; inactive: 0.038 with vorinostat; inactive: -0.055 in the test with silmitasertib; inactive: 0.016 in test [2]; inactive: -0.032 with entospletinib.

With PANK2 (UniProt Q9BZ23), the log2 fold change was inactive: 0 in test [1], inactive: -0.012 in test [2] and inactive: -0.023 in the test with entospletinib.

PAPOLG (UniProt Q9BWT3): the log2 fold change in test [1] was inactive: -0.037; in the test with vorinostat it was active: -0.369; with silmitasertib, inactive: 0.209; in test [2], inactive: 0.066; in the test with entospletinib, inactive: -0.013.

Consider PANK3 (UniProt Q9H999), for which the log2 fold change is inactive: 0.039 in test [1], inactive: -0.056 with vorinostat, inactive: 0.124 with silmitasertib and inactive: -0.036 with entospletinib.

In the case of OGFOD2 (UniProt Q6N063), the log2 fold change is inactive: 0.023 in test [1]; inactive: -0.075 with vorinostat; inactive: 0.038 in the test with silmitasertib; inactive: 0.022 in test [2]; inactive: -0.001 with entospletinib.

Take NUP210 (UniProt Q8TEM1): the log2 fold change in test [1] was inactive: -0.006; in the test with vorinostat it was active: 0.276; with silmitasertib, inactive: 0.022; in test [2] it was inactive: -0.013; with entospletinib, inactive: -0.038.

As for PA2G4 (UniProt Q9UQ80), the log2 fold change in test [1] was inactive: 0.004; with vorinostat, inactive: 0.002; in the test with silmitasertib, inactive: -0.004; in test [2], inactive: -0.006; with entospletinib it was inactive: 0.006.
